Experimental data: publication PMC3650004
These are yes or no findings as the source states them, for the method shown. Binding seen in cells or lysates may run through a third protein. Some results given as binding are weak or reduced against the parent protein; the word gives no strength.

Amino acid sequences for entries named in this document (tags omitted).
UniProt P78527: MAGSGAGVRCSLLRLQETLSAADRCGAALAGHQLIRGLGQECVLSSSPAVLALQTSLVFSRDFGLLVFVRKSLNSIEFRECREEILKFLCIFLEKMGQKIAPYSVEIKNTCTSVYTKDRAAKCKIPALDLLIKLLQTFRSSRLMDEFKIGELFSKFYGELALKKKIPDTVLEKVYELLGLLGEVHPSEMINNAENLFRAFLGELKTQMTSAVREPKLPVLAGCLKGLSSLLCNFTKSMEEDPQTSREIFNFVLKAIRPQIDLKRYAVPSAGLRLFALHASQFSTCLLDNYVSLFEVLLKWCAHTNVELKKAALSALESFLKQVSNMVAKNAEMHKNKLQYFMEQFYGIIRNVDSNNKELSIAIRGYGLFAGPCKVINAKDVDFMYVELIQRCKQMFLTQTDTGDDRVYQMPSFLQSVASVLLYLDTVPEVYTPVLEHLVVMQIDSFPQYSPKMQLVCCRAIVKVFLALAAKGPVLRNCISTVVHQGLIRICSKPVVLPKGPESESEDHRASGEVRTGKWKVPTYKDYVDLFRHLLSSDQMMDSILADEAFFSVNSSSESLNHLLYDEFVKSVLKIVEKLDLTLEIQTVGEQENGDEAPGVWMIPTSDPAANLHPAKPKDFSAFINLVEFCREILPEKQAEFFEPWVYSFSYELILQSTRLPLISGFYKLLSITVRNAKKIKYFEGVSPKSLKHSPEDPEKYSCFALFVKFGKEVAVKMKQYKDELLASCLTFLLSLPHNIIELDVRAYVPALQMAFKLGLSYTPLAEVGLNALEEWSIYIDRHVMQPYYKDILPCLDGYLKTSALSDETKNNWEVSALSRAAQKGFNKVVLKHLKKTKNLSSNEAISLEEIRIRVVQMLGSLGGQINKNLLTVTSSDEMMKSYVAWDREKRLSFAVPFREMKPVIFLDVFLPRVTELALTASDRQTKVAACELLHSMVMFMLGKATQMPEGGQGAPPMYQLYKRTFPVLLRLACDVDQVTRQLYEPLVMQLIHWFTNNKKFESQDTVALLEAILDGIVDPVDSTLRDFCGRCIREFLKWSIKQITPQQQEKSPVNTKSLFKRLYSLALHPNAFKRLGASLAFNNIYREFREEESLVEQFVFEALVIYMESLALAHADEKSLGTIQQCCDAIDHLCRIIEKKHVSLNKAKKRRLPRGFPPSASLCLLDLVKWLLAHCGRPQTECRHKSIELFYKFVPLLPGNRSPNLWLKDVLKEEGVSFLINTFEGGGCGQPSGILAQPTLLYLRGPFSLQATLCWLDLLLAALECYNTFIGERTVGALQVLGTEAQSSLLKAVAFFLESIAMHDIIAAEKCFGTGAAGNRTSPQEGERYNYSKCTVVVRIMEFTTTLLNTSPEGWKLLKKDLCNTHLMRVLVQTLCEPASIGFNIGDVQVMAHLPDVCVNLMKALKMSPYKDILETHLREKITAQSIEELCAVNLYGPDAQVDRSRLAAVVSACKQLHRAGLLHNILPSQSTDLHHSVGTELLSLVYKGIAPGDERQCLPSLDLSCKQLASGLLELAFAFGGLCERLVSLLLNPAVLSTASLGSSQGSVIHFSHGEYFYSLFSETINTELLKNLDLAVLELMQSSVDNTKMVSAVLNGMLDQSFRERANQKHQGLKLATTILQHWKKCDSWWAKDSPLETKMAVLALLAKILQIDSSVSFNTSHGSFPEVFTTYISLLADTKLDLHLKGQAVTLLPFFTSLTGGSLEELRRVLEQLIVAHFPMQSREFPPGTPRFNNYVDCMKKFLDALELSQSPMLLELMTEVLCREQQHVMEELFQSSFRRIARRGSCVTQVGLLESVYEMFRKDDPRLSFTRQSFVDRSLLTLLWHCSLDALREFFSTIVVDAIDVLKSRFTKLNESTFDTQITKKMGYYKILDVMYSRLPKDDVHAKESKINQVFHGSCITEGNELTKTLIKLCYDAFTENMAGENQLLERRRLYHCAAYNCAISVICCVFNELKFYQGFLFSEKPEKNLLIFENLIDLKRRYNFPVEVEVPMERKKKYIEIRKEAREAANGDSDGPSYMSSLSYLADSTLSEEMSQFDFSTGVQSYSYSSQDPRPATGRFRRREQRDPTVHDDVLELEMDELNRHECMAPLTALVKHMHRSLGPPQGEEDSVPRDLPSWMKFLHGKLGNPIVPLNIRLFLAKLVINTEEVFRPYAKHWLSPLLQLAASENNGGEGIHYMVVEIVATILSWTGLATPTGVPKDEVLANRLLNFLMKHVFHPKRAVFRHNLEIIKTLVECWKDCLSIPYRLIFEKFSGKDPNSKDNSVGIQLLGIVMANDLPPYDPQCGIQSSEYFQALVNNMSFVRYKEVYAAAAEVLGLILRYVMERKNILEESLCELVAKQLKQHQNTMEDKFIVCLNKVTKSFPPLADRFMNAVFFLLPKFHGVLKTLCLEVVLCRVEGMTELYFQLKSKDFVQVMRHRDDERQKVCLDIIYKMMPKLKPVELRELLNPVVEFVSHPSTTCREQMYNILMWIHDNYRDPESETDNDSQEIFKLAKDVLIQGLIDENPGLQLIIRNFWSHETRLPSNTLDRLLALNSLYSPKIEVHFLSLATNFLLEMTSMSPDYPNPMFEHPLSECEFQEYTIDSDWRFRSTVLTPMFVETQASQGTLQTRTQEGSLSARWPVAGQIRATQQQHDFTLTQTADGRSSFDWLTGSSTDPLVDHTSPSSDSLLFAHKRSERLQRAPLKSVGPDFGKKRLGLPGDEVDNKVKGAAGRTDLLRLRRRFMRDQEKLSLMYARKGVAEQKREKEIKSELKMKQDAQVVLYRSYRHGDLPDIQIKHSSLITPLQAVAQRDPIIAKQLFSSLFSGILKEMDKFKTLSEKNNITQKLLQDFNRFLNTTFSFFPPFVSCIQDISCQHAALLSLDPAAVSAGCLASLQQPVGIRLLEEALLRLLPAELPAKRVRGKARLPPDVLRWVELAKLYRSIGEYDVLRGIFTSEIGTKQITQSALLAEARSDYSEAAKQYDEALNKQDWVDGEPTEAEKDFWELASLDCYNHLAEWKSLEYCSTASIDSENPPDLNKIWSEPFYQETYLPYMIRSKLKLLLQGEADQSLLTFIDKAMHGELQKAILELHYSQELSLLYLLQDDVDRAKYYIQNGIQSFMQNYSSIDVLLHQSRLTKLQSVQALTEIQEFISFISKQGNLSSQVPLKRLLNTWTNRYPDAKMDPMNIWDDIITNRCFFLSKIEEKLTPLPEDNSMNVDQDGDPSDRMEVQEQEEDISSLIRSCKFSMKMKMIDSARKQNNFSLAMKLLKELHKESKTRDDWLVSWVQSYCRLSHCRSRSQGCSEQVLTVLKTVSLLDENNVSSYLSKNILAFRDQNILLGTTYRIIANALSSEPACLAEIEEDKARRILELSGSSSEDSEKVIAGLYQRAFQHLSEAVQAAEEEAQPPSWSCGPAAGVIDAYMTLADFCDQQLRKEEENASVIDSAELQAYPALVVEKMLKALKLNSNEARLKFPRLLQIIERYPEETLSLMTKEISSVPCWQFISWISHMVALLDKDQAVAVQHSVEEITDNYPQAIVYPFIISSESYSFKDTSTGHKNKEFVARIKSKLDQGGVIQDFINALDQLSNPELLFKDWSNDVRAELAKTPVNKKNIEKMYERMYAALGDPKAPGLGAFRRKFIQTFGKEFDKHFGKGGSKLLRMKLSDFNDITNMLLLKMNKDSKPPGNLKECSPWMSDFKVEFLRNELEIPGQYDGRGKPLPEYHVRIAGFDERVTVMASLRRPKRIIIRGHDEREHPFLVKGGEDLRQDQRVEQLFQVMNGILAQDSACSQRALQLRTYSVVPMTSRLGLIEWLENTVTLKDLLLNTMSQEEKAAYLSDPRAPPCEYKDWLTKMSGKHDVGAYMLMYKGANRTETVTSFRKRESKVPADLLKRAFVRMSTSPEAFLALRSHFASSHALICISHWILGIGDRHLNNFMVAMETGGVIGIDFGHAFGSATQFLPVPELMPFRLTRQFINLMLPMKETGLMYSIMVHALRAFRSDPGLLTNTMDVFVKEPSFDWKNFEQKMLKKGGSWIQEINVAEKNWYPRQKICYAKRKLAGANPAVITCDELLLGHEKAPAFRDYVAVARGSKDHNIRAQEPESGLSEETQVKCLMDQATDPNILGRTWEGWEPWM
UniProt Q9Y5B9: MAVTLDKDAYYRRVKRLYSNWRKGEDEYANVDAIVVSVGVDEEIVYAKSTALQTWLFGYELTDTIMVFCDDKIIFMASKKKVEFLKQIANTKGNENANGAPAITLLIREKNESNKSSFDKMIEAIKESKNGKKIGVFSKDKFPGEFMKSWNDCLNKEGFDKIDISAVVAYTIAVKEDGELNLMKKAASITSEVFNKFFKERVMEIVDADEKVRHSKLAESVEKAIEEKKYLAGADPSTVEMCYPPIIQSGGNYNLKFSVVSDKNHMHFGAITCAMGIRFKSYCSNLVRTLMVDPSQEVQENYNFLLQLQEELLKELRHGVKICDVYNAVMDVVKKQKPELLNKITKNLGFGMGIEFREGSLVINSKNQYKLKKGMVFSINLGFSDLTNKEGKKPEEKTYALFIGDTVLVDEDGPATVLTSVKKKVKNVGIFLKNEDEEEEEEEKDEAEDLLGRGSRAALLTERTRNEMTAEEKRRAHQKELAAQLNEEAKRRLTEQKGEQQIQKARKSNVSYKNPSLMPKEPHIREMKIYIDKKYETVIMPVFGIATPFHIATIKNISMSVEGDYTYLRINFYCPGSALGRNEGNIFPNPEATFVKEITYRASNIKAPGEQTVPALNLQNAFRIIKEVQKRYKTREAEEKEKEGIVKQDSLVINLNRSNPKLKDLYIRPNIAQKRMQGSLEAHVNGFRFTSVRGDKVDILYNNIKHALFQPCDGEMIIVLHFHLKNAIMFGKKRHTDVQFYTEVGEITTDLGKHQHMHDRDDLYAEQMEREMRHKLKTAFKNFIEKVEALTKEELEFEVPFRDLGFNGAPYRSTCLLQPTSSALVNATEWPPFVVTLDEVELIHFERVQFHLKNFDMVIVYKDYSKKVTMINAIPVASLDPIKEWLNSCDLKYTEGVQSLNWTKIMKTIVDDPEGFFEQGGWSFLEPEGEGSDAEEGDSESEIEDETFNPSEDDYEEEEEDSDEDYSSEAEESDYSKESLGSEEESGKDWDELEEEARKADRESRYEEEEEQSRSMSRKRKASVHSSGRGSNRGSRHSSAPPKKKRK

Tests used:
[1] = target: WRN helicase (endogenous) (human (endogenous in HeLa and HEK293T)) (UniProt Q14191); assay: co-IP; WRN antibody immunoprecipitates from HeLa nuclear extracts, immunoblot
[2] = target: T1, SMARCAL1 (endogenous) (human (endogenous in HeLa)) (UniProt Q9NZC9); assay: co-IP; SMARCAL1-909 antibody immunoprecipitates from HeLa nuclear extracts, immunoblot; cells mock treated or 2 mM HU for 16 h
T1 sequence: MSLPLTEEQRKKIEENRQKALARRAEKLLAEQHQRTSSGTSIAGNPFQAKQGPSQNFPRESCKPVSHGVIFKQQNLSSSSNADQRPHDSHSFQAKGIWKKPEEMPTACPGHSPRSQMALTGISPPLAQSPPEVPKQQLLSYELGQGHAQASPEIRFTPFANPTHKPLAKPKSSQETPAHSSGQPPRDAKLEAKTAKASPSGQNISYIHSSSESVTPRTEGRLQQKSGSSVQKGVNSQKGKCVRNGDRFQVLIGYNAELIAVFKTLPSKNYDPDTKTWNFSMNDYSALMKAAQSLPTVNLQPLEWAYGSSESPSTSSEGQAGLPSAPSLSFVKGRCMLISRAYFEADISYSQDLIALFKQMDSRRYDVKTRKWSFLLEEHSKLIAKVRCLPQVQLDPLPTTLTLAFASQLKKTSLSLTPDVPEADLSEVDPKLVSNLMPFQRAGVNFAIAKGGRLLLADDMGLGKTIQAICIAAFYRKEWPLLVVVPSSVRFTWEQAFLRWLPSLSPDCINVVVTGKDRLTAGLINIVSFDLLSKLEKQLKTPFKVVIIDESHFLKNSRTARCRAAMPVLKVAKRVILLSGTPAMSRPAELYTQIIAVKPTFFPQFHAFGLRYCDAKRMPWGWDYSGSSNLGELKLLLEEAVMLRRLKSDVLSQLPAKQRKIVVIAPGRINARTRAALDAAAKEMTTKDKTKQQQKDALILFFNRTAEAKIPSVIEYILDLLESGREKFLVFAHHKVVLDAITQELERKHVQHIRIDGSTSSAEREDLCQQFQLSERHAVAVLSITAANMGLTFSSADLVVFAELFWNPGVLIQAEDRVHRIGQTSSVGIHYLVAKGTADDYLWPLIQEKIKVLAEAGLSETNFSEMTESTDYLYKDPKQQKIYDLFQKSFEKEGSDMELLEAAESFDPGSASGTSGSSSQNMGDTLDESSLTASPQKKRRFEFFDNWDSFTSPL

Row | Substance | binding [1] | binding [2]
1 | DNA-PKcs (endogenous) (from UniProt P78527 1-4128) | binds | –
2 | SPT16 (endogenous) (from UniProt Q9Y5B9 1-1047) | – | binds
